# Measurements published in publication PMC11514270.
# Amino acid sequences for entries named in this document (tags omitted). Residues count along the entry.
# UniProt Q9H0J9: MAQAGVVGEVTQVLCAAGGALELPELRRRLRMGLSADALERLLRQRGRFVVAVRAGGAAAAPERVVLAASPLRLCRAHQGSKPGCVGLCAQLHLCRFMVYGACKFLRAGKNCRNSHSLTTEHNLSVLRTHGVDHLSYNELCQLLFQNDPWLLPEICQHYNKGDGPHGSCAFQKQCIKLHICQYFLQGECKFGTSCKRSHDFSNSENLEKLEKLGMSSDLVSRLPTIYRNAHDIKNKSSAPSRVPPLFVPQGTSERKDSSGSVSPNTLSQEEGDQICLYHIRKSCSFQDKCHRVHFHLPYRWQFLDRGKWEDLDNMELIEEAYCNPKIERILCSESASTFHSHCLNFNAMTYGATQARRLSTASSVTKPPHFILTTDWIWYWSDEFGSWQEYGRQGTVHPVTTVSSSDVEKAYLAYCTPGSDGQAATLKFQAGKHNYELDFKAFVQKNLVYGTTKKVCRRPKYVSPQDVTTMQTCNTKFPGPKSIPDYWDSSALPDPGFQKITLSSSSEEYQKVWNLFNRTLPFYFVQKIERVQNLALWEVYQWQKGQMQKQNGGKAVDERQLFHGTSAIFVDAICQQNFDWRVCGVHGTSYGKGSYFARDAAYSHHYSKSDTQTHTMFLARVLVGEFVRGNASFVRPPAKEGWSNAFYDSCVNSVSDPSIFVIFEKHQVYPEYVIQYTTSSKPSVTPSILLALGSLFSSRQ
# UniProt P05161, residues 1-157: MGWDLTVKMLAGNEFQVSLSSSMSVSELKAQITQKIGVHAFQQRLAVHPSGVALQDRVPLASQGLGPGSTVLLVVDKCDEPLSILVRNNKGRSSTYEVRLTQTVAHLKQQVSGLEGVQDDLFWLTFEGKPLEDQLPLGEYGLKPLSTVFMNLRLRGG
# These are yes or no findings as the source states them, for the method shown. Binding seen in cells or lysates may run through a third protein. Here binding means that the protein was enriched with, or labelled near, the bait; the list need not be complete.
# Biological target: Poly (ADP-ribose) polymerase family member 12 (PARP12) (human (endogenous in primary human chondrocytes)) (UniProt Q9H0J9)
# Assay: affinity purification with mass spectrometry; PHC lysate incubated with 1 ug anti-PARP12 antibody (ab241967) or normal rabbit IgG overnight at 4 °C, Protein A/G beads 2 h at room temperature, SDS-PAGE, silver staining, mass spectrometry
substance,measurement,value
Interferon-stimulated gene 15 (ISG15) (from UniProt P05161 1-157),binding,binds
